This is an account of results in publication PMC12501277, “The deubiquitylase OTUB1 drives gemcitabine resistance in pancreatic cancer by enhancing pyrimidine metabolism through modulating DHODH mRNA stability” (Cell Death & Disease, 2025).

The chains behind the UniProt entries cited, without tags or fusion partners.
UniProt Q96FW1: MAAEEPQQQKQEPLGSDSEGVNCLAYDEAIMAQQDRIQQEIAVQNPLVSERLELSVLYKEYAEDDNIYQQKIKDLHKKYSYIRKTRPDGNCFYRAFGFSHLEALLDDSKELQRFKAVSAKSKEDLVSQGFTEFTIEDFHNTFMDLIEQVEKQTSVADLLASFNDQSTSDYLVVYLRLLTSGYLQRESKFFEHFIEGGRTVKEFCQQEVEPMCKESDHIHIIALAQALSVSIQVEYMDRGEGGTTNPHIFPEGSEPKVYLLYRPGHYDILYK
UniProt O00571: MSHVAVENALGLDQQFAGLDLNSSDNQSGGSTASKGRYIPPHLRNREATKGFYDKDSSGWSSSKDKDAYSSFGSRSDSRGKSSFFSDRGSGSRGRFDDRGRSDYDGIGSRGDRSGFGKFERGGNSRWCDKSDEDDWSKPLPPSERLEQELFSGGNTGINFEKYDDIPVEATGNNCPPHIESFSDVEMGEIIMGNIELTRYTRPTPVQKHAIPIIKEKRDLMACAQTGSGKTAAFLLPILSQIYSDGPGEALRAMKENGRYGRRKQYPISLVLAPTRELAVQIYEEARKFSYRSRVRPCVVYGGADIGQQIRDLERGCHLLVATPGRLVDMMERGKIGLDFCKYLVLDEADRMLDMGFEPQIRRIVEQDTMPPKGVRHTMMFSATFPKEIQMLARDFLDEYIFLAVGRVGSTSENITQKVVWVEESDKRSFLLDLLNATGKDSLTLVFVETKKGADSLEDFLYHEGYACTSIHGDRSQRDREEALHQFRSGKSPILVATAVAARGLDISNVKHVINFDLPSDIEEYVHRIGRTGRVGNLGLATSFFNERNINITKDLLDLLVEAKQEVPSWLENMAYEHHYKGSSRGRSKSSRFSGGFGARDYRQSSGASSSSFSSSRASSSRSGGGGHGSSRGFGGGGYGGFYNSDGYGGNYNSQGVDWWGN

For the test, the target named is OTUB1 (human (endogenous in AsPC-1)) (UniProt Q96FW1). The test can be described thus: affinity purification with mass spectrometry; OTUB1 immunoprecipitates from PC cells analysed by mass spectrometry.

No constants are given. Whether binding was seen depends on the method and setting. Binding seen in cells or lysates may run through a third protein. A yes stands for co-enrichment or nearness to the bait. Other partners may have been found.

For the substance “DEAD-box helicase 3 X-linked (DDX3X) (from UniProt O00571 1-662)”, the binding result is given as “binds”.
